Among the data in publication doi:10.1101/2024.08.12.607668 (bioRxiv, 2024) are binding values, retold here.

Results are given in words; binding and its absence hold for the method and conditions named. Some entries that bind do so weakly or less than the wild type. Tags and fused reporters may be left off the sequences shown.

Assay [1] addresses T1, AbrB from B. subtilis 168, full-length, His6-tagged (B. subtilis 168) (UniProt P08874).
T1 sequence: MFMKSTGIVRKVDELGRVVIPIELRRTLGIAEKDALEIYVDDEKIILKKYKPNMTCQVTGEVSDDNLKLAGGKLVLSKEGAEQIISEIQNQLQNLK
Briefly: circular dichroism. In general terms: CD spectra are sensitive to the conformation of chiral molecules.

Assay [2] addresses T1, AbrB from B. subtilis 168, full-length, His6-tagged (B. subtilis 168). Description: native gel or EMSA.

B1: AbrB antirepressor AbbA from B. subtilis 168, His6-tagged (natural protein, UniProt O31697 1-65, looked up)
chain: MRMSLIGERFTEEEQKLLLNILINHEYAIELLSSEINDIETGTKNVDGTTYKKLVTLYDRFRFEN
As for B1, the binding entry in assay [1] and in assay [2] was “binds” in each case.
